PubChem BioAssay AID1224830 – NIAID, 2016

- Purpose: 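Host factors that control LPS-induced TNF expression in human macrophages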 (primary screen)
- Cell system: human THP-1 monocytic leukaemia cells, TNF dual-luciferase reporter clone, PMA-differentiated to macrophage-like cells
- Reagents: siRNA pool against human genes, 50 nM
- Time to read-out: LPS for 4 h, given about 3 days after siRNA transfection
- Conditions: bacterial LPS (TLR4 ligand), 10 ng/ml
- Measurement: 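Ratio of firefly to renilla light, scaled to the plate median and expressed as a robust z-score per replicate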
- Scale: TNF reporter robust z-score: higher = stronger TNF reporter response to LPS
- Rule for the call: 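a well is active when its z-score exceeds 2.8 or falls below -1.5; control wells carry no call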
The whole screen tested about 18,000 reagents; below is a part drawn at random. Of all reagents, about 2,900 (16%) were called active. 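Calls are made per well; low scores hint the gene aids the LPS response, high scores that it dampens it.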 Repeated entries: four replicate wells of each siRNA pool.

Target gene,TNF reporter robust z-score,call
KRTAP5-2,-0.06,inactive
KRTAP5-2,-1.41,inactive
KRTAP5-2,-0.56,inactive
KRTAP5-2,0.51,inactive
PABPN1L,0.41,inactive
PABPN1L,0.91,inactive
PABPN1L,0.66,inactive
PABPN1L,0.57,inactive
FKBP9,1.71,inactive
FKBP9,2.56,inactive
FKBP9,0.47,inactive
FKBP9,1.63,inactive
KRT75,-0.45,inactive
KRT75,0.09,inactive
KRT75,0.01,inactive
KRT75,-0.05,inactive
C10orf88,1.18,inactive
C10orf88,-0.14,inactive
C10orf88,0.33,inactive
C10orf88,1.02,inactive
PSMD9,-0.82,inactive
PSMD9,-0.03,inactive
PSMD9,-0.54,inactive
PSMD9,1.47,inactive
UGT1A6,2.47,inactive
UGT1A6,0.8,inactive
UGT1A6,0.57,inactive
UGT1A6,0.48,inactive
DIO2,-0.26,inactive
DIO2,14.2,active
DIO2,2.2,inactive
DIO2,0.82,inactive
DPCD,-0.68,inactive
DPCD,-0.73,inactive
DPCD,-0.69,inactive
DPCD,-1.08,inactive
ARHGAP29,1.79,inactive
ARHGAP29,0.32,inactive
ARHGAP29,0.56,inactive
ARHGAP29,0.8,inactive
ZNF586,-0.77,inactive
ZNF586,-0.58,inactive
ZNF586,-0.83,inactive
ZNF586,-0.32,inactive
CHD4,-1.52,active
CHD4,-0.34,inactive
CHD4,-1.4,inactive
CHD4,-0.63,inactive

5 entries from above, set out differently.
| Target gene | TNF reporter robust z-score | call |
| --- | --- | --- |
| FKBP9 | 1.71 | inactive |
| FKBP9 | 2.56 | inactive |
| FKBP9 | 0.47 | inactive |
| FKBP9 | 1.63 | inactive |
| KRT75 | -0.45 | inactive |
